Values of other authors in patent US7939564B2, “Combination with bis(thiohydrazide amides) for treating cancer” (Synta Pharmaceuticals Corp., priority 2006, dated 2011).
At least one structure is not confirmed: it was looked up by name or label, or the drawing left a doubt.

Test system: melanoma
Conditions: other currently used treatments for melanoma; cited from earlier work

Structure (SMILES) | OR (%) | Survival (months) | CR (%) | PR (%) | TTP [days]
CN(C)/N=N/c1[nH]cnc1C(N)=O [DTIC (dacarbazine), dacarbazine] | 10-20% | no |  |  | 
Cn1nnc2c(C(N)=O)ncn2c1=O [Temozolomide (Temodar), Temozolomide] | 13.5% | 7.7 months | 2.6 | 9.6 | 58
